For 1 substance, binding results are on record in paper PMC10398932.

The chains behind the UniProt entries cited, without tags or fusion partners.
UniProt Q00987: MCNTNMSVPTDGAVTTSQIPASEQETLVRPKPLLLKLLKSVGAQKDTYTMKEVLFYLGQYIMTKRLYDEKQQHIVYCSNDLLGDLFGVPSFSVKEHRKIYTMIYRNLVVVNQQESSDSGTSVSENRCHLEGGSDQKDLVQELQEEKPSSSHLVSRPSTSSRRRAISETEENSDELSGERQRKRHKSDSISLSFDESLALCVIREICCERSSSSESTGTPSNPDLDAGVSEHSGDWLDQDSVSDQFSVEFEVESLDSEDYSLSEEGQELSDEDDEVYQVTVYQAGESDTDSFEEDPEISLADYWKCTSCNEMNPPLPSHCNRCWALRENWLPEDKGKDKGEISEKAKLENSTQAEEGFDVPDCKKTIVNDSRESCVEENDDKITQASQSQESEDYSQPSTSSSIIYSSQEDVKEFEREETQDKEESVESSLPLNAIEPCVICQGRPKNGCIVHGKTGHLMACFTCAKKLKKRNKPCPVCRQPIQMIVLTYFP

In the test the target is T1, Germ cell-specific gene 2 (GSG2) (human (endogenous in MCF-7 and MDA-MB-231)) (UniProt Q8TF76).
T1 sequence: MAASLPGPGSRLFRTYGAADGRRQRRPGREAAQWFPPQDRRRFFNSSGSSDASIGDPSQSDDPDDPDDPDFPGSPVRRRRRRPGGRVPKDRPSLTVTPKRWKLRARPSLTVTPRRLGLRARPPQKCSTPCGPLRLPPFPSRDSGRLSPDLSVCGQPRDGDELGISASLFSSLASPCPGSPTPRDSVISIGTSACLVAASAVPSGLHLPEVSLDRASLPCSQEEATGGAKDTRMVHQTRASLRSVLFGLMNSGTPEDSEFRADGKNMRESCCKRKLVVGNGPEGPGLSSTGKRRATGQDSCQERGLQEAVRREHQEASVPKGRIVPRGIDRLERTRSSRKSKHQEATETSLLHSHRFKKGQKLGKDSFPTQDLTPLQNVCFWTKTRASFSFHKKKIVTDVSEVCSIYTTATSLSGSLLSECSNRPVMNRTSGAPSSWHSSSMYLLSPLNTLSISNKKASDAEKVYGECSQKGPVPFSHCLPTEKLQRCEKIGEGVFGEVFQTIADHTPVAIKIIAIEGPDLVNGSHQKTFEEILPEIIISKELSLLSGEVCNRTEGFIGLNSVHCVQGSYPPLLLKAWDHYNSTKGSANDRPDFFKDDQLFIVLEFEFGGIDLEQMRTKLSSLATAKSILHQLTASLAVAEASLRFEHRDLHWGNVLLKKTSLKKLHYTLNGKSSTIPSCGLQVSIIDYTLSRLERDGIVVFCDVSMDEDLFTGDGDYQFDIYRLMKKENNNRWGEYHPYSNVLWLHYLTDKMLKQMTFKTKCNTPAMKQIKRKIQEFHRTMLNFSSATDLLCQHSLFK
The test can be described thus: co-IP; anti-GSG2 or anti-MDM2 antibody on Protein A/G beads, incubated with cell lysate, washed 3 times, western blot; forward and reverse; also MCF-7 and MDA-MB-231 cells treated with or without CHR-6494.

These are yes or no findings as the source states them, for the method shown. Binding seen in cells or lysates may run through a third protein. Some results given as binding are weak or reduced against the parent protein; the word gives no strength.

As for “E3 ubiquitin ligase mouse double minute 2 (MDM2) (from UniProt Q00987 1-491)”, the binding entry is “binds”.
